Experimental data reported in patent publication US20260043816A1.
No constants are given. Whether binding was seen depends on the method and setting. Some entries that bind do so weakly or less than the wild type.

Experiments:
[1] = molecular target: recombinant full length TDP-43 (SEQ ID NO: 1, FL TDP-43) (human) (UniProt Q13148); experiment: SIMOA sandwich immunoassay: ACI-7071-809F12-Ab1-rec2 on paramagnetic beads as capture, biotinylated ACI-7071-4665-B5-R3B-Ab2 as detector, human TDP-43 calibrator titrated
[2] = molecular target: endogenous TDP-43 in human blood samples (EDTA plasma; platelet fractions) (human) (UniProt Q13148); experiment: SIMOA sandwich immunoassay, capture antibody on paramagnetic beads

B1: ACI-7071-809F12-Ab1-rec2 (as described in WO2020234473) (antibody, V domains shown)
VH: QVQLKESGPGLVAPSQSLSITCTVSGFSLNRNGVQWVRQPPGKGLEWLGVIWPGGSTNCNSALMSRLSISKDNSKSQVFLKMNSLHTDDTGIYYCARVGGNYVWDYNNYAWGQGTLVTVSA
VL: DVLMTQTPLSLPVSLGDQASISCRSSQNIVHSIGNTYLEWYLQKPGQSPKLLIYKVSNRFSGVPDRFSGSGSGTDFTLKISRVEAEDLGVYYCFQGSHVPYTFGGGTKLEIR
In the case of B1, the binding [1] is reported as “binds” and the binding [2] is reported as “binds”.
